Results are given in words; binding and its absence hold for the method and conditions named. In cells and extracts the contact can be indirect. Some binding calls cover weakened binding; strength is not graded here.

Among the data in doi:10.1101/2025.08.13.669552 are binding values, retold here.

For this assay, the target named is T1, BATF (mouse (endogenous in Treg cells of Foxp3^hCD2 mice)) (UniProt O35284).
T1 sequence: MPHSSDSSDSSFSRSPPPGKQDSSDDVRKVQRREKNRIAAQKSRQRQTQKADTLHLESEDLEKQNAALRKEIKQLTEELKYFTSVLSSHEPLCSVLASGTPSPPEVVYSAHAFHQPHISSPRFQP
Briefly: co-IP.

B1: Foxp3 (protein, UniProt Q99JB6 1-417)
chain: MPNPRPAKPMAPSLALGPSPGVLPSWKTAPKGSELLGTRGSGGPFQGRDLRSGAHTSSSLNPLPPSQLQLPTVPLVMVAPSGARLGPSPHLQALLQDRPHFMHQLSTVDAHAQTPVLQVRPLDNPAMISLPPPSAATGVFSLKARPGLPPGINVASLEWVSREPALLCTFPRSGTPRKDSNLLAAPQGSYPLLANGVCKWPGCEKVFEEPEEFLKHCQADHLLDEKGKAQCLLQREVVQSLEQQLELEKEKLGAMQAHLAGKMALAKAPSVASMDKSSCCIVATSTQGSVLPAWSAPREAPDGGLFAVRRHLWGSHGNSSFPEFFHNMDYFKYHNMRPPFTYATLIRWAILEAPERQRTLNEIYHWFTRMFAYFRNHPATWKNAIRHNLSLHKCFVRVESEKGAVWTVDEFEFRKKR
Turning to B1, the binding entry is on record as “binds”.
